From paper PMC9371351
No constants are given. Whether binding was seen depends on the method and setting. Binding seen in cells or lysates may run through a third protein. Some results given as binding are weak or reduced against the parent protein; the word gives no strength.

Protein sequences, listed by entry. Tags and fused reporters are not part of them.
UniProt F5HCV3: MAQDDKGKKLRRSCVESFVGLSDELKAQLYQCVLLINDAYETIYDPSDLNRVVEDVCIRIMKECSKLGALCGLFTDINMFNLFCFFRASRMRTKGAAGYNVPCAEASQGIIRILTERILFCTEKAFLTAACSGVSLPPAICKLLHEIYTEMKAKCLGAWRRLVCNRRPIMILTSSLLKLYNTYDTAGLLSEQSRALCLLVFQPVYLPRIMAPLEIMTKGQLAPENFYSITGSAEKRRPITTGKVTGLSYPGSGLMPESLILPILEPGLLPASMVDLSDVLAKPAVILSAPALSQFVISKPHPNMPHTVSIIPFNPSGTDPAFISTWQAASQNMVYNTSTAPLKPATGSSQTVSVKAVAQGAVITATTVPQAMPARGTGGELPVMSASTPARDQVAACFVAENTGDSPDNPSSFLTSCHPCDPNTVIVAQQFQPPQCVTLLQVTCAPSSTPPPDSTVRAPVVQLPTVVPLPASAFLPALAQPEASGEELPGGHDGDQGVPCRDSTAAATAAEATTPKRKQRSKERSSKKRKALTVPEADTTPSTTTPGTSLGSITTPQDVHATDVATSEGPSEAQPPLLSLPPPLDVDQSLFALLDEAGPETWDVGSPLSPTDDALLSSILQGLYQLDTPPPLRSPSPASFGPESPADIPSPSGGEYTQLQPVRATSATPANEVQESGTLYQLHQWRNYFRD
UniProt Q8IY18: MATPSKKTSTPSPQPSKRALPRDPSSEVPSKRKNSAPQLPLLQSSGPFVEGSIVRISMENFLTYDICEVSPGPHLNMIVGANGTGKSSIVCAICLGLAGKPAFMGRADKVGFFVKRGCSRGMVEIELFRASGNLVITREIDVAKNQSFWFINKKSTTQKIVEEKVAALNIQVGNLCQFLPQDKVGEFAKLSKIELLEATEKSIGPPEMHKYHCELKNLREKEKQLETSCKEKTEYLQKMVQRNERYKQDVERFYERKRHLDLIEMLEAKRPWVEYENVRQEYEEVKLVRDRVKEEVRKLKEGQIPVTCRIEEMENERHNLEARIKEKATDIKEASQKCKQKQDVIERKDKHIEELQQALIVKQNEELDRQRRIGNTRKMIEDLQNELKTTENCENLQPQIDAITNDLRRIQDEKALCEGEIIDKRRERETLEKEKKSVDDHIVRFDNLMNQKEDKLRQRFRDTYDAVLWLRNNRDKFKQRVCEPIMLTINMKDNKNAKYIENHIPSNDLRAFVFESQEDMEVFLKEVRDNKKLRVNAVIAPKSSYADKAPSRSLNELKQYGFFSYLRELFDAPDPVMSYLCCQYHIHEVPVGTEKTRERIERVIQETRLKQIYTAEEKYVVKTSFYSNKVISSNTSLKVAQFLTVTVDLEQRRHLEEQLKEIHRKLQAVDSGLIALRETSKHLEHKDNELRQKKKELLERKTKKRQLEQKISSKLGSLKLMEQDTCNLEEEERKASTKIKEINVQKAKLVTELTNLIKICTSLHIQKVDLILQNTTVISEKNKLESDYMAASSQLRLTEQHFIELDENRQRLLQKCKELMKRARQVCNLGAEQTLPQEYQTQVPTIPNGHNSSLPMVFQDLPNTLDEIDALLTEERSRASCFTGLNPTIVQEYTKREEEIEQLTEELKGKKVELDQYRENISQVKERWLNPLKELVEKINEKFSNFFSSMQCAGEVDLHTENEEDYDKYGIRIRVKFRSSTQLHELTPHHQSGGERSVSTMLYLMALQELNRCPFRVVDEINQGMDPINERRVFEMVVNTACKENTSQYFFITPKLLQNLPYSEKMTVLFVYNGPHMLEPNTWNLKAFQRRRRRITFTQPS

What was measured:
Assay in all cases: co-IP
[1] = biological target: T1, endogenous SMC6 (human (endogenous in iSLK.RGB)) (UniProt Q96SB8)
T1 sequence: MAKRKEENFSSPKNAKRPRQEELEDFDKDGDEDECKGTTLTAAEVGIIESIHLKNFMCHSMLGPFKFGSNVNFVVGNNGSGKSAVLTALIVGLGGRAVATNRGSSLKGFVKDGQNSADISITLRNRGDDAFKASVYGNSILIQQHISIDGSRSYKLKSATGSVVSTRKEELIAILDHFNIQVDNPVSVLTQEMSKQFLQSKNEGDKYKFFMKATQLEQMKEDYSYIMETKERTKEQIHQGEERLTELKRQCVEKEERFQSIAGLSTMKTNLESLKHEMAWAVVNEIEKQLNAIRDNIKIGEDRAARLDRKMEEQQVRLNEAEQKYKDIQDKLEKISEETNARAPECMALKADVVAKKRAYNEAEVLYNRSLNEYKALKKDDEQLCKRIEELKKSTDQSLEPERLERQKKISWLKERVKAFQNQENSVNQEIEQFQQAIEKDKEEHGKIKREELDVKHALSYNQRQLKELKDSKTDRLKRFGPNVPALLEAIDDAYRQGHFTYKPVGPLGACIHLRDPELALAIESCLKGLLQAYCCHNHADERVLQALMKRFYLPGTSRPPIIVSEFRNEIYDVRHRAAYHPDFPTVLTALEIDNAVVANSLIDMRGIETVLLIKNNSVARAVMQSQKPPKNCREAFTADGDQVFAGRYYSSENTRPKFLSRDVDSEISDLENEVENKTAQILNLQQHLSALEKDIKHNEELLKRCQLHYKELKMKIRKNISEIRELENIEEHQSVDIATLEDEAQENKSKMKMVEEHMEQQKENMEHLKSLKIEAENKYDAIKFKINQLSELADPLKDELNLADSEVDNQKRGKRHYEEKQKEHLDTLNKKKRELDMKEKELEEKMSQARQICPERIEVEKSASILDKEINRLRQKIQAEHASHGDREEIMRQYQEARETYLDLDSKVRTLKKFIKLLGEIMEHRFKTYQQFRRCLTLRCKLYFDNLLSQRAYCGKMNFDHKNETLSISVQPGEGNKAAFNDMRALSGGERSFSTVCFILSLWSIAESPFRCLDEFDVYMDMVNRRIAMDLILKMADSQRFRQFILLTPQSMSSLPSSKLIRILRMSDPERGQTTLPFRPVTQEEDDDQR

[2] = biological target: FLAG-RTA (KSHV replication and transcription activator, full-length) (KSHV) (UniProt F5HCV3)
[3] = biological target: RTA expressed in Dox-induced iSLK.RGB cells (KSHV) (UniProt F5HCV3)

Q: For “RTA expressed in Dox-induced iSLK.RGB cells (from UniProt F5HCV3 1-691)”, which binding [1] is on record?
A: binds

Q: With “HA-SMC5 (structural maintenance of chromosomes protein 5) (from UniProt Q8IY18 1-1101)” as the molecule, how does the binding [2] read?
A: binds

Q: For “endogenous SMC5 (from UniProt Q8IY18 1-1101)”, which binding [3] is on record?
A: binds

B1: endogenous SMC6 (protein, UniProt Q96SB8 1-1091)
chain: T1 sequence
Q: Which binding [3] does the source give for B1 here?
A: binds
